We go through 1 substance from publication PMC4055689.

Chains of the proteins cited; added tags and fusions are not shown. Lines headed by an entry give the natural chain unless they say otherwise; changes in a name come on top.
UniProt P14867: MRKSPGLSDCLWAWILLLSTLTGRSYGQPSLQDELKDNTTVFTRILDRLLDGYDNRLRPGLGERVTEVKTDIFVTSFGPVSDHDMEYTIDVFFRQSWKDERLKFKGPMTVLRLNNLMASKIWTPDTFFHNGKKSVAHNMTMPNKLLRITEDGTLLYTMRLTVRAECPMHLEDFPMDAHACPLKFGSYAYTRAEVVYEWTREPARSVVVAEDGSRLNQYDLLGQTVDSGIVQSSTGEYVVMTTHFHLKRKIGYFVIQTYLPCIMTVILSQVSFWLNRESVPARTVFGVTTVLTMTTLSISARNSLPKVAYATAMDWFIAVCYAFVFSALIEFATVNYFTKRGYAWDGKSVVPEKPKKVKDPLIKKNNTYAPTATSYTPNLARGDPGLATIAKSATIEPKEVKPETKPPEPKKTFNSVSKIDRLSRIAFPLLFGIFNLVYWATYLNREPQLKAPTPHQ

No constants are given. Whether binding was seen depends on the method and setting. Binding seen in cells or lysates may run through a third protein. Some entries that bind do so weakly or less than the wild type. Sequences can lack the tags named with a protein.

For this experiment, the target named is T1, ASIC1a with HA tag (UniProt P78348).
T1 sequence: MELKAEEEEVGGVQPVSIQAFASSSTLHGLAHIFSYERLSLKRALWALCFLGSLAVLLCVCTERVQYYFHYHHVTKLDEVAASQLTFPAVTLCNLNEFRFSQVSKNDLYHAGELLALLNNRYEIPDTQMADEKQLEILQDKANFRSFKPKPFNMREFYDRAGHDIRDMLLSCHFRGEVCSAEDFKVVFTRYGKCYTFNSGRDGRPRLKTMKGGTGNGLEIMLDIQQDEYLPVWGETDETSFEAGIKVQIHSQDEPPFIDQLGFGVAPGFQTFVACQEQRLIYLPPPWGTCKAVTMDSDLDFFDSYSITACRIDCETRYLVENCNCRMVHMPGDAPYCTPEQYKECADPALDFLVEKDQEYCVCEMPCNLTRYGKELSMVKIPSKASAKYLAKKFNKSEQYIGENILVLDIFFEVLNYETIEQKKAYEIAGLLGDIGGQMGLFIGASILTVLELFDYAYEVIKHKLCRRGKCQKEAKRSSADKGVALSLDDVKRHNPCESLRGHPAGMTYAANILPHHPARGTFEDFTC
Description: co-IP; HEK293 cells transiently co-transfected with HA-ASIC1a and GABAAR α1β2, lysed 36 h after transfection in 1% Triton X-100, 50 mM Tris pH 7.5; precipitated with anti-HA beads, blotted with anti-GABAAR β2.

With “GABAA receptor α1β2 (GABAA receptor subunits α1 and β2) (from UniProt P14867 28-456; P47870 26-512) (complex)”, the binding result is “binds”.
